We go through five compounds from PMC4851402, “Validation of N-myristoyltransferase as Potential Chemotherapeutic Target in Mammal-Dwelling Stages of Trypanosoma cruzi” (PLoS Neglected Tropical Diseases, 2016).

Data set [1] deals with Purified ICAs of T. cruzi. It is filed as cell-based, Trypanosoma cruzi (Y strain). The following applies: selectivity index, U2OS cells vs purified ICAs. How it is done:
Intracellular amastigote (ICA) forms were purified as described. Briefly, 5 x 10^6 LLC-MK2 cells were seeded in a 150-cm^2 tissue culture flask (NUNC, Thermo Scientific) and cells were grown for 3–4 days to reach confluency of ~2 x 10^7 cells per flask. The medium was then replaced with fresh complete medium and host cells were infected with 1 x 10^8 TCT (multiplicity of infection (MOI) ≈ 5). After 5 days, the infected monolayers were gently detached by scraping and resuspended in 5 mL phosphate-buffered saline (PBS). The suspension containing the infected cells was next transferred to an M-tube (Miltenyi Biotec Inc., San Diego, CA). This tube bears a special stator and rotor that allows for tissue homogenization. In addition, it has a pre-inserted mesh that retains larger particles, removing them from the homogenized sample. The tube was then placed in the gentleMACS Dissociator (Miltenyi Biotec) for the automated disruption of host cells. The homogenized sample containing the parasites was then passed through a column containing anion exchange preswollen microgranular diethylaminoethyl cellulose (DE52, Whatman, Sigma-Aldrich).
DMSO control wells contained 30 μL 6% DMSO, whereas wells for the negative control contained 1% hydrogen peroxide in DMEM. U2OS cells were resuspended in DMEM, 10% HI-FBS, to give a cell density of 2 x 10^5 cells/mL, while ICA forms were resuspended in DMEM, 10% HI-FBS, to a final density of 1 x 10^7 per well. Epi forms were resuspended in LIT medium to a density of 1 x 10^6 parasites per well. Hundred and fifty microliters of the suspension containing either host cells or parasites were added per well. Following 47- and 23-h incubation at 37°C for mammalian cells and ICA, respectively, a mixture of propidium iodide (Invitrogen) and Hoechst dye (Invitrogen) diluted in culture media (1 μg/mL each) was added to the plates, which were then further incubated for 1 h at 37°C. […] In the case of Epi, after 68-h incubation at 28°C, 18 μL Alamar Blue (AbD Serotec, Raleigh, NC) were added per well. Following an additional 4-h incubation, the plate was read in a microplate fluorometer (Thermo Scientific) at excitation 560 nm, emission 590 nm. Three independent experiments were performed in triplicate wells.
(§1) EC50 were determined from three independent experiments.

Data set [2] concerns T. cruzi intracellular amastigote proliferation. As to the kind of experiment: In vitro T. cruzi intracellular proliferation assay in infected U2OS cells, high-content imaging. It is filed as cell-based, Trypanosoma cruzi (Y strain). Conditions: selectivity index, U2OS cells vs T. cruzi proliferation assay. How it is done:
DMSO control wells contained 30 μL 6% DMSO. Human […] (U2OS cells) were diluted in DMEM, 10% heat inactivated-fetal bovine serum (HI-FBS) to give a cell density of 2 x 10^5 cells/mL. T. cruzi trypomastigotes were resuspended in DMEM, 10% HI-FBS to a final density of 1.2 x 10^7. Cells and parasites were mixed a ratio of 4 volumes of cells plus 1 volume of parasites. 150 μL of the mixture were dispensed per well. Plates were incubated for 48 h. After the incubation period, media was removed from the wells and 100 μL 4% paraformaldehyde (PFA) were added. After 15 min of incubation at room temperature, PFA was removed and cells and parasites were stained with Draq5 (BioStatus, Leicestershire, UK) at a concentration of 5 μM diluted in PBS. The plates were then read in a bioimager system as described below. Three independent experiments were performed in triplicate wells.
Filter sets appropriate for the excitation and emission spectra of Draq5 were utilized. Images from four fields (2 x 2 montage) were acquired per well with a 20x objective. To perform the host cell segmentation and counting of parasites, the BD AttoVision v1.6.2 Sub Object analysis was used. […]
as §1

`Cc1c(NS(=O)(=O)c2c(Cl)cc(-c3ccnc(N4CCNCC4)c3)cc2Cl)c(CC(C)C)nn1C` [Compound 1]: in data set [1], the “Purified ICAs S.I.” value came out at 7.0.
As for `Cc1nn(C)c(C)c1NS(=O)(=O)c1c(Cl)cc(CCCN2CCN(C)CC2)cc1Cl` [Compound 3], the “T. cruzi proliferation assay S.I.” value in data set [2] was above 4.85.
On to `Cc1nn(C)c(C)c1N(C(F)F)S(=O)(=O)c1c(Cl)cc(CCCC2CCN(C)CC2)cc1Cl` [Compound 5], for which the “Purified ICAs S.I.” value in data set [1] turned out to be 190.0.
The same measure, in the same setting: next, `Cc1nn(C)c(C)c1N(CC(F)(F)F)S(=O)(=O)c1c(Cl)cc(CCCC2CCN(C)CC2)cc1Cl` [Compound 7]: 1.3; `Cc1nn(C)c(C)c1N(C(F)F)S(=O)(=O)c1c(Cl)cc(CCCCC2CCN(C)CC2)cc1Cl` [Compound 8]: 595.0.
